Results as given in US20230203162A1.
These are yes or no findings as the source states them, for the method shown. Some binding calls cover weakened binding; strength is not graded here.

Amino acid sequences for entries named in this document (tags omitted). A change or cut given only in a name is not applied to a line headed by its entry. Chains listed by the source or under a name are the forms on record and can include a tag or linker.
recombinant human MSLN (purchased from Peprotech) (Q13421, form named): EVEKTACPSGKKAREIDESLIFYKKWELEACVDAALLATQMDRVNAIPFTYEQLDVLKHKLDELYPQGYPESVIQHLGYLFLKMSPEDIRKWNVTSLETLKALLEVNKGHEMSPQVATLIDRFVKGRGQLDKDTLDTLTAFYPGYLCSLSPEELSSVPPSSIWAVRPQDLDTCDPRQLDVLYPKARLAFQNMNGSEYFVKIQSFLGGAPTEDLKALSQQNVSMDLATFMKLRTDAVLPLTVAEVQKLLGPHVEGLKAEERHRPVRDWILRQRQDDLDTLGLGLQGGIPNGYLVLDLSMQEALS

Target: recombinant human MSLN (purchased from Peprotech) (human) (UniProt Q13421)
Assay: SPR

B1: PRO2567 (MATCH4) (protein)
chain 1: AFELTQSPSSLSASVGDRVTITCQASESINSRLAWYQQKPGQPPKLLIYDASDLTSGVPSRFSGSGSGTDFTLTISSLQPEDFATYYCQGYGGSSTTTFGTGTKLTVLGGGGGSGGGGSGGGGSGGGGSEVQLVESGGGLVQPGGSLRLSCAASGFSLSSYAMNWVRQAPGKGLEWIGHINAGDIAYYATWAKGRFTISRDNSKNTVYLQMNSLRAEDTAVYFCARGAGGFSTGPFKLWGQGTLVTVSSGGGGSGGGGSEVQLVESGGGLVQPGGSLRLSCAASGFSLSSYDMSWVRQAPGKGLAWIGASYASGPTYYASWAKGRFTISRDNSKNTVYLQMNSLRAEDTATYFCARGGWTGTSHSNIWGQGTLVTVSSGGGSGGGSGGGSGQSQLVESGGGLVQPGGSLRLSCAVSGFSLSSYAMGWVRQAPGKCLEYIGYISKIGTTYYASWAKGRFTISKDNSKNTVYLQMNSLRAEDTAVYFCARGSSSGGYLDDGFDPWGQGTLVTVSS
chain 2: ALQMTQSPSSLSARVGDRVTIKCQASQSISNYLAWYQQKPGKPPKFLIYDASDLASGVPSRFSGSGSGRDFTLTISSLQPEDFATYYCQQVYDSNNVENVFGCGTKVTVLGGGGGSGGGGSGGGGSGGGGSQSQLVESGGGLVQPGGSLRLSCAVSGFSLSSYAMGWVRQAPGKCLEYIGYISKIGTTYYASWAKGRFTISKDNSKNTVYLQMNSLRAEDTAVYFCARGSSSGGYLDDGFDPWGQGTLVTVSSGGGGSGGGGSALQMTQSPSSLSARVGDRVTIKCQASQSISNYLAWYQQKPGKPPKFLIYDASDLASGVPSRFSGSGSGRDFTLTISSLQPEDFATYYCQQVYDSNNVENVFGCGTKVTVLGGGSGGSDIQMTQSPSSLSASVGDRVTITCQSSQSVFSNNYLAWFQQKPGQSPKRLIYSASTLASGVPSRFSGSGSGTDFTLTISSLQPEDFATYYCLGSYACSSADCYVFGTGTKVTVLG
binding: binds
